The values that follow come from PMC8179140.

Sequences of proteins named here, by UniProt entry; tags and fusion partners are left off.
UniProt O95452: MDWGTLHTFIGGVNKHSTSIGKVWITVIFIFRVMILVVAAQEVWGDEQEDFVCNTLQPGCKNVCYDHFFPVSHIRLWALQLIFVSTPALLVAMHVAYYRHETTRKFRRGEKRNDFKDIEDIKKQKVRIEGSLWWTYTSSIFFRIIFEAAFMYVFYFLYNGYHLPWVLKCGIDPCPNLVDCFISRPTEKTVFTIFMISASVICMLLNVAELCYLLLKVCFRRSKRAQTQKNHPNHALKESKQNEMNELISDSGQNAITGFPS

The target in the test is Connexin30 (UniProt O95452). Briefly: co-IP; TMEM43 WT or p.(Arg372Ter) coexpressed with Cx26 or Cx30 in HEK293T cells (heterologous expression system).

These are yes or no findings as the source states them, for the method shown. Binding seen in cells or lysates may run through a third protein. Some binding calls cover weakened binding; strength is not graded here.

B1: TMEM43-p.(Arg372Ter) (domain or fragment, UniProt Q9BTV4 1-371)
chain: MAANYSSTSTRREHVKVKTSSQPGFLERLSETSGGMFVGLMAFLLSFYLIFTNEGRALKTATSLAEGLSLVVSPDSIHSVAPENEGRLVHIIGALRTSKLLSDPNYGVHLPAVKLRRHVEMYQWVETEESREYTEDGQVKKETRYSYNTEWRSEIINSKNFDREIGHKNPSAMAVESFMATAPFVQIGRFFLSSGLIDKVDNFKSLSLSKLEDPHVDIIRRGDFFYHSENPKYPEVGDLRVSFSYAGLSGDDPDLGPAHVVTVIARQRGDQLVPFSTKSGDTLLLLHHGDFSAEEVFHRELRSNSMKTWGLRAAGWMAMFMGLNLMTRILYTLVDWFPVFRDLVNIGLKAFAFCVATSLTLLTVAAGWLFY
For the molecule B1, the binding entry is recorded as “binds”.

B2: TMEM43 wild-type (WT) (protein, UniProt Q9BTV4 1-400)
chain: MAANYSSTSTRREHVKVKTSSQPGFLERLSETSGGMFVGLMAFLLSFYLIFTNEGRALKTATSLAEGLSLVVSPDSIHSVAPENEGRLVHIIGALRTSKLLSDPNYGVHLPAVKLRRHVEMYQWVETEESREYTEDGQVKKETRYSYNTEWRSEIINSKNFDREIGHKNPSAMAVESFMATAPFVQIGRFFLSSGLIDKVDNFKSLSLSKLEDPHVDIIRRGDFFYHSENPKYPEVGDLRVSFSYAGLSGDDPDLGPAHVVTVIARQRGDQLVPFSTKSGDTLLLLHHGDFSAEEVFHRELRSNSMKTWGLRAAGWMAMFMGLNLMTRILYTLVDWFPVFRDLVNIGLKAFAFCVATSLTLLTVAAGWLFYRPLWALLIAGLALVPILVARTRVPAKKLE
Turning to B2, the binding entry is “binds”.
